{"source": "paper PMC3960203", "binders": {"B1": {"name": "TRAF1 (protein, UniProt Q13077 1-416)", "chain": "MASSSGSSPRPAPDENEFPFGCPPTVCQDPKEPRALCCAGCLSENPRNGEDQICPKCRGEDLQSISPGSRLRTQEKAHPEVAEAGIGCPFAGVGCSFKGSPQSVQEHEVTSQTSHLNLLLGFMKQWKARLGCGLESGPMALEQNLSDLQLQAAVEVAGDLEVDCYRAPCSESQEELALQHFMKEKLLAELEGKLRVFENIVAVLNKEVEASHLALATSIHQSQLDRERILSLEQRVVELQQTLAQKDQALGKLEQSLRLMEEASFDGTFLWKITNVTRRCHESACGRTVSLFSPAFYTAKYGYKLCLRLYLNGDGTGKRTHLSLFIVIMRGEYDALLPWPFRNKVTFMLLDQNNREHAIDAFRPDLSSASFQRPQSETNVASGCPLFFPLSKLQSPKHAYVKDDTMFLKCIVETST"}}, "target": "T1, chimeric receptor RANK-TNFR2 (UniProt Q9Y6Q6)", "T1 sequence": "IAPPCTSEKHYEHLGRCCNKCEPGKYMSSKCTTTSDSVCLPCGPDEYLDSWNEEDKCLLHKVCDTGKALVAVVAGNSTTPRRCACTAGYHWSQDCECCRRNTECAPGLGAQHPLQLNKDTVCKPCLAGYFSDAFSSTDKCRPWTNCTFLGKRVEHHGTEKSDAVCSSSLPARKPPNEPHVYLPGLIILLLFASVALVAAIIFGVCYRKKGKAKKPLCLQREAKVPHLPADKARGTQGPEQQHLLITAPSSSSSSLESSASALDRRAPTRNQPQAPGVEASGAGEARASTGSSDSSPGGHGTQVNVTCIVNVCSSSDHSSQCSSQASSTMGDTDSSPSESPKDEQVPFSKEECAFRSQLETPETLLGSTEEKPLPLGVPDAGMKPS", "assay": "co-IP; HEK293 cells cotransfected with receptor and TRAF plasmids, lysed after 24 h (20 mM Tris-HCl pH 8.0, 150 mM NaCl, 1 mM DTT, 2 mM EDTA, 1% Triton X-100); receptor precipitated with anti-FLAG and protein G-Sepharose at 4 °C; blots with anti-TRAF1, anti-TRAF2 or anti-TRAF3", "note": "Results are given in words; binding and its absence hold for the method and conditions named. In cells and extracts the contact can be indirect. Some entries that bind do so weakly or less than the wild type."}
{"binder": "B1", "values": [{"measurement": "binding", "result": "binds"}]}
